# Experimental data published in the supplement of paper PMC12578635.
# ± gives the standard deviation of the averaged measurements. The list shows a part of the results. Repeats are few or missing, and single values can be far off.
# Tested on: RAW 264.7 macrophages infected with S. aureus JE2-lux
# Assay: host macrophage viability (CellTiter-Fluor) relative to DMSO vehicle; higher = more viable host cells
# Conditions: 10 µM; treatment time 4 h; gentamicin 50 µg/ml
row,Compound,host macrophage viability [%]
1,Cc1ccc(N(Cc2ccc3c(c2)CN(S(=O)(=O)c2cccc(C)c2)CCO3)C(=O)C(C)C)cc1,87.2
2,Cc1ccc(COc2ccc([N+](=O)[O-])cc2/C=C2\SC(=O)NC2=S)cc1,103
3,COc1ccc2[nH]c3nc(SCC(=O)Nc4ccc(C(=O)NC5CC5)cc4)nnc3c2c1,109
4,Cc1ccccc1C(=O)NC1CC2CCCC(C1)N2C(=S)Nc1ccccc1 (stereo not drawn),110
5,O=C(NCCc1csc(-c2ccc(C(F)(F)F)cc2)n1)c1ccc2c(c1)OCO2,127
6,Cc1ccc(C(=O)Nc2cc3c4c(c2)CCN4C(=O)CC3)cc1C,108
7,CC(=O)c1cccc(NC(=O)CSc2nnc(Cn3nnc4ccccc43)n2C)c1,108
8,CCCn1c(=O)c(=O)[nH]c2cc(-c3noc(COc4ccccc4)n3)ccc21,111
9,O=C1C(=O)N(CCOc2ccc(Cl)cc2)c2ccccc21,110
10,CC1CCN(S(=O)(=O)c2ccc(NC(=S)NC(=O)C3CC3)cc2)CC1,107
11,O=C(NCc1ccccc1)N1CCCC1c1nc(-c2cnccn2)n[nH]1 (stereo not drawn),105
12,CCOc1ccc2nc(NC(=O)CSc3nnc4c(n3)[nH]c3ccccc34)sc2c1,104
13,Cc1ccc(Nc2c(C(=O)NC(C)CCc3ccccc3)cnc3c2c(C)nn3C)cc1 (stereo not drawn),69.4
14,Cc1ccc(C)c(S(=O)(=O)NCCn2c(C(F)(F)F)nc3cccnc32)c1,117
15,CSc1nc2ccc3nc(NC(=O)c4cc5ccccc5oc4=O)sc3c2s1,106 ± 3.9
16,Cc1cc(CNC(=O)Cn2cnc3sc(C)cc3c2=O)c2[nH]c(C)c(C)c2c1,112
17,O=C(Cn1nc(-c2ccccc2)c2cnc3ccc(F)cc3c21)NC1CCCC1,123
18,C=CCN1C(=O)SC(CC(=O)Nc2ccc(C)cc2)C1=O (stereo not drawn),112
19,NC(=O)C1CCN(C(=O)CCCCCn2c(=O)[nH]c3ccsc3c2=O)CC1,126
20,COc1ccc(C2=NN(S(C)(=O)=O)C(c3cn(-c4ccccc4)nc3-c3ccc(C)cc3)C2)cc1 (stereo not drawn),91.2
21,NC(=O)COc1ccc2c(-c3cc4cc(Cl)ccc4oc3=O)cc(=O)oc2c1,109
22,N=C1N=C(O)NC(=O)/C1=N/Nc1cccc(Br)c1,111 ± 13
23,CCc1c(C)nc2ncnn2c1Sc1ccc(N(C)C)cc1,130
24,O=C(Cc1ccc(Cl)cc1)Oc1coc(CSc2ncccn2)cc1=O,120
25,Cn1c2ccc(F)cc2c2nnc(SCC(=O)N3CCCc4ccccc43)nc21,96
26,COC(=O)CSc1ncnc2c1cnn2-c1ccc(F)cc1,122

row,Compound,host macrophage viability [%]
1,Cc1cccc2c(O)c(C(=O)NCCN3CCOCC3)cnc12,120
2,CCCCc1nc(SCc2cccc(C(F)(F)F)c2)c2c(=O)n(C)c(=O)n(C)c2n1,122
3,O=C(CSC1=NC2(CCCCC2)N=C1c1ccccc1)Nc1ccc2c(c1)OCCO2,129
4,COc1ccc(Cl)cc1NC(=O)CSc1nc2c(c(=O)n1C)SC(C)C2 (stereo not drawn),97.3
5,COC(=O)c1sccc1N1Cc2ccncc2C1=O,122
6,Cc1ccc(NC(=O)c2ccc3nnc(SCC(=O)NCc4ccc(Cl)cc4)n3c2)cc1,104
7,COc1ccc(NC(=O)CSc2nnc3ccc(S(=O)(=O)c4ccccc4)nn23)cc1,96.1
8,C=CCOc1ccccc1NC(=O)c1ccc2c(c1)nnn2C1CCCCC1,119
9,Cc1ccc2nc(SCC(=O)NCc3ccccc3)nc(=O)n2c1,117
10,CCN(CC)c1ncc(C(=O)Nc2ccc(OC)cc2OC)c2ccccc12,105
11,NC(=O)c1cc2ccccc2o/c1=N\NC(=O)c1ccncc1,110 ± 11
12,CC(C)c1ccc(NC(=O)CCn2c(=O)oc3ccccc32)cc1,116 ± 14
13,COc1ccc(N(CC(=O)NCCc2ccccc2)C(=O)c2csnn2)cc1,127
14,CCC1CCCCN1C(=O)Cn1nc(-c2cc(C)oc2C)cc(N)c1=O (stereo not drawn),106
15,COc1ccc(C(=O)Oc2coc(CSc3nc(C)cs3)cc2=O)cc1OC,101
16,O=C(CSc1nnc2n(Cc3ccccc3)c3ccccc3n12)N1CCc2ccccc21,117
17,O=C(Nc1ccc(-c2ccc(NC(=O)c3cccs3)cc2)cc1)c1cccs1,134
18,CCCCOC(=O)Nc1[nH]c(C)c(C(=O)OCC)c1C,130
19,Brc1cccc2sc(N3CCCC3)nc12,110.5 ± 0.21
20,CCC(=O)Nc1cccnc1-c1ccc(C(=O)Nc2ccc(OC)c(Cl)c2)cc1,115
21,CCS(=O)(=O)Nc1ccc(-c2nnc(SCC(=O)Nc3cccc(O)c3)o2)cc1,106
22,Cc1cc2nc(C3CCN(C(=S)Nc4ccc(F)cc4)CC3)[nH]c2cc1C,101
23,O=C(CSc1cnc2ccccc2n1)NCc1ccc2c(c1)OCO2,118
24,Cn1c(=O)n(CC(=O)N2CCCC2)c(=O)c2cc(S(=O)(=O)Nc3cccc4c3CCCC4)ccc21,103
25,O=C1CCc2cc(S(=O)(=O)NC3CCN(Cc4ccccc4)C3)ccc2N1 (stereo not drawn),120
26,O=C(Nc1c(C(=O)Nc2ccc3c(c2)OCCO3)oc2ccccc12)c1ccccc1C(F)(F)F,103

row,Compound,host macrophage viability [%]
1,Cc1cc2ccccc2n2c(=O)n(CCNC(=O)c3[nH]ncc3Br)nc12,106
2,CCOc1ccccc1-n1nnc(C(=O)Nc2ccc(C(=O)O)cc2)c1C,113
3,CCOc1ccc2ncc3c(-c4ccccc4)nn(CC(=O)Nc4cccc(F)c4)c3c2c1,127
4,COc1ccc(S(=O)(=O)c2cn(CC(=O)Nc3ccccc3)c3ccc(Cl)cc3c2=O)cc1,126
5,Cc1cc2c(=O)n(Cc3ccco3)c(SCc3cc(O)[nH]n3)nc2s1,114
6,CCOC(=O)C1=C(N)Oc2c(oc(CO)cc2=O)C1c1ccccc1 (stereo not drawn),126
7,O=S(=O)(NCCCc1nc2cc3ccccc3cc2[nH]1)c1ccc2c(c1)OCCO2,122
8,CC1CCCN(S(=O)(=O)c2ccc(C(=O)Nc3nc4c(s3)CSc3ccccc3-4)cc2)C1 (stereo not drawn),117
9,Cc1ccc(Oc2ccc(CNC(=O)C(C)N3C(=O)NC(C)(C)C3=O)cc2)cc1 (stereo not drawn),98.5
10,Cc1nn(C)c(C)c1CNC(=O)c1cc2c(-c3cccs3)nn(-c3ccccc3)c2n1C,97.6
11,Cc1ccc(CNC(=O)CCCn2c(=S)[nH]c3ccc(Br)cc3c2=O)cc1,129
12,Cc1cc(C)c(NC(=O)CSC2=C(C#N)C(c3ccco3)CC(=O)N2)c(C)c1 (stereo not drawn),119
13,O=C(NCc1ccnc(N2CCCCC2)c1)Nc1cccc(Br)c1,115
14,Cc1c(C(=O)NC(c2ccccc2)c2cccnc2)[nH]c2ccccc12 (stereo not drawn),125
15,O=C(NCCC1=CCCCC1)C(=O)Nc1ccc(F)c(F)c1,114
16,Cc1cc(=O)[nH]c2ccc(S(=O)(=O)Nc3ccc(Br)cc3)cc12,112
17,Cc1cc(F)ccc1S(=O)(=O)Oc1ccc2oc3ccccc3c2c1,121
18,O=c1n(Cn2nnc3ccccc32)nc(C(F)(F)F)c2cccn12,95.9
19,Cc1cc(C)n2nc(C(=O)NCc3ccc(N4CCCC4=O)cc3)cc2n1,127
20,CC(=O)c1ccc(Nc2nc3c(S(=O)(=O)c4ccccc4)nnn3c3ccc(Cl)cc23)cc1,136
21,N#Cc1c(N)nc(SCc2ccccc2)c(C#N)c1C1CCCCC1,107
22,CC1=C(C(=O)OCc2ccccc2)C(c2cccc(Br)c2)NC(=S)N1 (stereo not drawn),106
23,Cc1cccc(C)c1NC(=O)C(C)n1cnc2onc(-c3ccc(Cl)cc3)c2c1=O (stereo not drawn),117
24,CC(=O)Nc1ccc2c(=O)cc(-c3ccccc3F)oc2c1,109
25,Cc1ccc(-c2nc3n(CC(=O)Nc4ccc(Br)cc4)c4c(c(=O)n3n2)CCC4)cc1,127
26,O=C(CSc1nc(=O)n2cc(Cl)ccc2n1)NC1CCCCC1,107

row,Compound,host macrophage viability [%]
1,O=C(COc1ccc2ccccc2c1)NCC1COC2(CCCC2)O1 (stereo not drawn),100
2,COc1cccc(C2C3=C(CCCC3=O)Nc3nc(SC(C)C)[nH]c(=O)c32)c1 (stereo not drawn),129
3,CCOc1ccc(NC(=O)CN2C(=O)C(c3ccc(OC)cc3)=NC23CCCCC3)cc1,125
4,N#Cc1ccc(CSc2ncccc2C(=O)O)cc1,126
5,COc1ccc(CCn2c(C)c(C)n3c4c(=O)n(CC(N)=O)c(=O)n(C)c4nc23)cc1OC,114
6,Cc1ccc(NC(=O)CSCC(=O)NCC2OCCc3ccccc32)cc1C (stereo not drawn),110
7,Cc1ccc(-c2nc(CCNC(=O)CCc3cc(Cl)no3)n[nH]2)cc1,121
8,COc1cc(OC)c(NC(=O)C(C)Sc2nnc(-c3ccncc3)o2)cc1Cl (stereo not drawn),83.5
9,COC(=O)c1ccc(NC(=O)CSc2ncnc3sc4c(c23)CCC4)cc1,116
10,O=C(NC(=S)Nc1ccc(S(=O)(=O)N2CCc3ccccc32)cc1)c1cccs1,118
11,Cc1ccc(C)c(S(=O)(=O)Nc2cc(Sc3nc[nH]n3)c(O)c3ccccc23)c1,112
12,CN(C)CCCN1C(=O)C(O)=C(C(=O)c2ccncc2)C1c1cccc(F)c1 (stereo not drawn),110
13,COc1ccc(N2CCn3c(nc4ccccc43)C2)cc1NC(=O)Nc1ccccc1,145
14,O=C(c1cccs1)N1CCN=C1SCc1ccc(Cl)cc1,96.8
15,CCCn1c(SCC(=O)Nc2ccccc2CC)nc2c(oc3ccccc32)c1=O,126
16,CCOc1ccc2cc(C#N)c(SCC(=O)Nc3ccccc3C(F)(F)F)nc2c1,97.4
17,COc1cc(C(=O)Oc2ccc3oc(=O)cc(-c4cc5ccccc5o4)c3c2)cc(OC)c1OC,120
18,CCOC(=O)c1sc(NC(=O)CSc2nc3c(=O)n(C)c(=O)n(C)c3n2C)nc1C,110
19,CN(C)CCN(C(=O)C1CC(=O)Nc2ccccc21)C1CCCCC1 (stereo not drawn),105
20,Cc1oc2ncnc(OC3CCN4Cc5ccccc5N=C34)c2c1C (stereo not drawn),123
21,CC1CC(NC(=O)C(=O)c2c[nH]c3ccccc23)CC(C)(C)C1 (stereo not drawn),117 ± 32
22,Cc1cc(SCC(=O)OCc2ccccc2)nc(=O)[nH]1,122
23,Cc1ccc(NC(=O)c2cnn3c(=O)c4c([nH]c23)CCC4)cc1,105
24,O=C(Nc1ccc(F)c(Cl)c1)C(=O)Nc1ccc2c(c1)OCCO2,101
25,Cc1ccc(N2C(=O)SC(Nc3ccccc3C(=O)O)C2=O)cc1C (stereo not drawn),99.3

# Sorted by number of heavy atoms (smallest number first): part of the list above
row,Compound,host macrophage viability [%]
9,O=C1C(=O)N(CCOc2ccc(Cl)cc2)c2ccccc21,110
11,Cc1ccc(CNC(=O)CCCn2c(=S)[nH]c3ccc(Br)cc3c2=O)cc1,129
12,CN(C)CCCN1C(=O)C(O)=C(C(=O)c2ccncc2)C1c1cccc(F)c1 (stereo not drawn),110
